# Reference: patent US20260092179A1, “GENETICALLY MODIFIED HOST CELLS PRODUCING VIOLACEIN, ANALOGUES, AND DERIVATIVES THEREOF” (OCTARINE BIO APS, priority 2022, published 2026)
# Experiments:
# [1] = Direct dyeing of fabrics with purified pigments dissolved in 100% ethanol (colour coordinates, ΔE); conditions: dye bath 100% ethanol, room temperature, 30 minutes; for ΔE: vs undyed fabric
# [2] = Direct dyeing of nylon 6,6 with deoxyviolacein Antifoam-A extract diluted in water
# [3] = Direct dyeing of fabrics with pigments in lipophilic in situ extractants diluted in ethanol (ΔE); conditions: vs undyed fabric
# [4] = nylon 6,6, extract diluted in water to approx. 1% Antifoam-A, room temperature overnight
smiles,measurement,setting,value
O=C1NC(c2c[nH]c3ccccc23)=C/C1=C1\C(=O)Nc2ccccc21 [deoxyviolacein],L,[1]; Bleached cotton,64.7
same,a,[1]; Bleached cotton,2.55
same,b,[1]; Bleached cotton,−7.44
same,ΔE,[1]; Bleached cotton,25.98
same,L,[1]; Denim,55.38
same,a,[1]; Denim,2.59
same,b,[1]; Denim,−8.78
same,ΔE,[1]; Denim,38.02
same,L,[1]; Diacetate,46.46
same,a,[1]; Diacetate,10.78
same,b,[1]; Diacetate,−13.47
same,ΔE,[1]; Diacetate,43.10
same,L,[1]; Hemp,75.81
same,a,[1]; Hemp,1.7
same,b,[1]; Hemp,−5.6
same,ΔE,[1]; Hemp,15.97
same,L,"[1]; Nylon 6,6",44.17
same,a,"[1]; Nylon 6,6",2.55
same,b,"[1]; Nylon 6,6",−14.56
same,ΔE,"[1]; Nylon 6,6",46.42
same,L,[1]; Polyester,67.73
same,a,[1]; Polyester,0.17
same,b,[1]; Polyester,0.03
same,ΔE,[1]; Polyester,21.29
same,L,[1]; Silk,72.02
same,a,[1]; Silk,2.4
same,b,[1]; Silk,−2.37
same,ΔE,[1]; Silk,18.38
same,L,[1]; Viscose,62.42
same,a,[1]; Viscose,2.98
same,b,[1]; Viscose,−1.89
same,ΔE,[1]; Viscose,25.86
same,L,[1]; Wool,62.08
same,a,[1]; Wool,−1.13
same,b,[1]; Wool,1.71
same,ΔE,[1]; Wool,22.14
same,colour coordinate L,[2]; [4],21.23
same,colour coordinate a,[2]; [4],7.43
same,colour coordinate b,[2]; [4],−16.54
same,ΔE,"[2]; nylon 6,6, versus undyed fabric control",32.31
same,ΔE,"[3]; 66% ethanol 33% Castor oil FAME, Acrylic, room temperature 30 minutes",25.0
same,ΔE,"[3]; 66% ethanol 33% Castor oil FAME, Bleached cotton, room temperature 30 minutes",28.7
same,ΔE,"[3]; 66% ethanol 33% Castor oil FAME, Diacetate, room temperature 30 minutes",41.9
same,ΔE,"[3]; 66% ethanol 33% Castor oil FAME, Nylon 6,6, room temperature 30 minutes",48.7
same,ΔE,"[3]; 66% ethanol 33% Castor oil FAME, Polyester, room temperature 30 minutes",36.2
same,ΔE,"[3]; 66% ethanol 33% Castor oil FAME, Wool, room temperature 30 minutes",27.0
same,ΔE,"[3]; 66% ethanol 33% Ethyl laureate, Acrylic, room temperature 30 minutes",22.1
same,ΔE,"[3]; 66% ethanol 33% Ethyl laureate, Bleached cotton, room temperature 30 minutes",31.3
same,ΔE,"[3]; 66% ethanol 33% Ethyl laureate, Diacetate, room temperature 30 minutes",51.5
same,ΔE,"[3]; 66% ethanol 33% Ethyl laureate, Nylon 6,6, room temperature 30 minutes",55.6
same,ΔE,"[3]; 66% ethanol 33% Ethyl laureate, Polyester, room temperature 30 minutes",28.5
same,ΔE,"[3]; 66% ethanol 33% Ethyl laureate, Wool, room temperature 30 minutes",25.9
same,ΔE,"[3]; 66% ethanol 33% Grapeseed oil, Acrylic, room temperature 30 minutes",18.2
same,ΔE,"[3]; 66% ethanol 33% Grapeseed oil, Bleached cotton, room temperature 30 minutes",28.5
same,ΔE,"[3]; 66% ethanol 33% Grapeseed oil, Diacetate, room temperature 30 minutes",55.4
same,ΔE,"[3]; 66% ethanol 33% Grapeseed oil, Nylon 6,6, room temperature 30 minutes",59.9
same,ΔE,"[3]; 66% ethanol 33% Grapeseed oil, Polyester, room temperature 30 minutes",24.7
same,ΔE,"[3]; 66% ethanol 33% Grapeseed oil, Wool, room temperature 30 minutes",22.0
same,ΔE,"[3]; 66% ethanol 33% Isopropyl palmitate, Acrylic, room temperature 30 minutes",25.9
same,ΔE,"[3]; 66% ethanol 33% Isopropyl palmitate, Bleached cotton, room temperature 30 minutes",35.2
same,ΔE,"[3]; 66% ethanol 33% Isopropyl palmitate, Diacetate, room temperature 30 minutes",58.7
same,ΔE,"[3]; 66% ethanol 33% Isopropyl palmitate, Nylon 6,6, room temperature 30 minutes",61.9
same,ΔE,"[3]; 66% ethanol 33% Isopropyl palmitate, Polyester, room temperature 30 minutes",29.1
same,ΔE,"[3]; 66% ethanol 33% Isopropyl palmitate, Wool, room temperature 30 minutes",27.1
same,ΔE,"[3]; 66% ethanol 33% Polysorbate 20, Acrylic, room temperature 30 minutes",3.4
same,ΔE,"[3]; 66% ethanol 33% Polysorbate 20, Bleached cotton, room temperature 30 minutes",10.6
same,ΔE,"[3]; 66% ethanol 33% Polysorbate 20, Diacetate, room temperature 30 minutes",20.6
same,ΔE,"[3]; 66% ethanol 33% Polysorbate 20, Nylon 6,6, room temperature 30 minutes",32.4
same,ΔE,"[3]; 66% ethanol 33% Polysorbate 20, Polyester, room temperature 30 minutes",11.5
same,ΔE,"[3]; 66% ethanol 33% Polysorbate 20, Wool, room temperature 30 minutes",10.7
same,ΔE,"[3]; Bleached cotton, dye bath 90% ethanol 10% isopropyl myristate, room temperature, 30 minutes",30.37
same,ΔE,"[3]; Denim, dye bath 90% ethanol 10% isopropyl myristate, room temperature, 30 minutes",38.02
same,ΔE,"[3]; Diacetate, dye bath 90% ethanol 10% isopropyl myristate, room temperature, 30 minutes",53.26
same,ΔE,"[3]; Hemp, dye bath 90% ethanol 10% isopropyl myristate, room temperature, 30 minutes",13.80
same,ΔE,"[3]; Nylon 6,6, dye bath 90% ethanol 10% isopropyl myristate, room temperature, 30 minutes",64.59
same,ΔE,"[3]; Polyester, dye bath 90% ethanol 10% isopropyl myristate, room temperature, 30 minutes",27.02
same,ΔE,"[3]; Silk, dye bath 90% ethanol 10% isopropyl myristate, room temperature, 30 minutes",21.85
same,ΔE,"[3]; Viscose, dye bath 90% ethanol 10% isopropyl myristate, room temperature, 30 minutes",28.07
same,ΔE,"[3]; Wool, dye bath 90% ethanol 10% isopropyl myristate, room temperature, 30 minutes",26.36
